Assay results: the supplement of paper PMC12819154, “High-throughput peptide-centric local stability assay extends protein–ligand identification to membrane proteins, tissues and bacteria” (Nature Structural & Molecular Biology, 2025)
Some of the results follow. Most entries show no effect beyond the scatter of the controls.

By UniProt entry, the sequences of proteins in these tests, tags left out. Where a name states a change or a piece, a line headed by the entry shows the natural chain unless it says otherwise.
UniProt P35637: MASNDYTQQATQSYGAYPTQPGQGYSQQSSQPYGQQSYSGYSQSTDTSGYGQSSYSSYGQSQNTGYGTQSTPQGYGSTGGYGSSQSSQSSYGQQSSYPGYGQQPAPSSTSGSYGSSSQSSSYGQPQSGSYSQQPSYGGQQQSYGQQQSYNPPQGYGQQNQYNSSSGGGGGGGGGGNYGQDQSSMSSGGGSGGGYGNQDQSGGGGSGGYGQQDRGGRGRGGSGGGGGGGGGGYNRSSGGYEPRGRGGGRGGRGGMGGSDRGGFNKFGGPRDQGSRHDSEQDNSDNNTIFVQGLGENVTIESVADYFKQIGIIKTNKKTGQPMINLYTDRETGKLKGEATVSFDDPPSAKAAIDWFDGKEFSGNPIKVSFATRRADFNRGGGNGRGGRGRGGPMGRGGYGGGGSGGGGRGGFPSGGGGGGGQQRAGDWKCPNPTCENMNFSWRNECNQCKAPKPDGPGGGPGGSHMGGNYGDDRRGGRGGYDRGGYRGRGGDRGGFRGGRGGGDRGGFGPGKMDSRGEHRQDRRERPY
UniProt P32314: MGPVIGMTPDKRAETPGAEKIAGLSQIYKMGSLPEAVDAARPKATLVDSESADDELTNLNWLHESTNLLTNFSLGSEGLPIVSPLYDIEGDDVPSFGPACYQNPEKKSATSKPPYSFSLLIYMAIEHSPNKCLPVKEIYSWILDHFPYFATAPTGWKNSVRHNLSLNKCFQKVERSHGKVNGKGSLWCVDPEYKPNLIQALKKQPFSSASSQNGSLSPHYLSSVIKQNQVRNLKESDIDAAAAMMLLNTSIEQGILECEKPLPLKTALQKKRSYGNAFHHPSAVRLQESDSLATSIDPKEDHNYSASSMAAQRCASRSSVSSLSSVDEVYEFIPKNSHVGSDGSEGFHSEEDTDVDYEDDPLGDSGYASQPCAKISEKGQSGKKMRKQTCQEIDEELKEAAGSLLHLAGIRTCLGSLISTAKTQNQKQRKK
UniProt P36542: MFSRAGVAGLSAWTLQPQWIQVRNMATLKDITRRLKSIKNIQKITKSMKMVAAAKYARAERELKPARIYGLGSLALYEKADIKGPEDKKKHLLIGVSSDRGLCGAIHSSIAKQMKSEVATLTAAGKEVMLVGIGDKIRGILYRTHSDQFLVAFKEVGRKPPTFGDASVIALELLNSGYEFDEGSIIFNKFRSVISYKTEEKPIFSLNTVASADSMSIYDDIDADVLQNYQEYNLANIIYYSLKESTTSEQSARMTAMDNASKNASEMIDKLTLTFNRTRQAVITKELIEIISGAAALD
UniProt P43487, whole entry: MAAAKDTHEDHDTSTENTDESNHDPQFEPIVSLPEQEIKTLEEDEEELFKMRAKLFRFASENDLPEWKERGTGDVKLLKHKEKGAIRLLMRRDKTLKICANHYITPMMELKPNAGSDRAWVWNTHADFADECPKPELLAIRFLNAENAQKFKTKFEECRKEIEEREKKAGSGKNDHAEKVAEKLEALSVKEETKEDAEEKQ
UniProt P32519: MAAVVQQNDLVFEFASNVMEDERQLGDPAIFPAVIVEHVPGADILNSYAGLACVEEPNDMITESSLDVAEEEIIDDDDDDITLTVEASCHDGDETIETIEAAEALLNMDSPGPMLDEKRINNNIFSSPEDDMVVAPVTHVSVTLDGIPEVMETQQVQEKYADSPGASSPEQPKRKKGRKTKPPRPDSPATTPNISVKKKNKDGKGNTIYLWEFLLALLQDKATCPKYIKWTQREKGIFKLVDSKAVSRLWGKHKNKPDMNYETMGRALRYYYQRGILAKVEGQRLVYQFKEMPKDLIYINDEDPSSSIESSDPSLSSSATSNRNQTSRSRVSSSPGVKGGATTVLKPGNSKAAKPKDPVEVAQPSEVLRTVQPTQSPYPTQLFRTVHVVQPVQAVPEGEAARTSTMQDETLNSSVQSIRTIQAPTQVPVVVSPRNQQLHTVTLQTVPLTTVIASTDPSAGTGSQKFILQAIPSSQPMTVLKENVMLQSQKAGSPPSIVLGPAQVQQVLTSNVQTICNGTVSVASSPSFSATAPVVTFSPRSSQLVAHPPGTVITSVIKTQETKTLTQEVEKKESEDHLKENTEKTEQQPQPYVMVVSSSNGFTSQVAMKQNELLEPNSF
UniProt P38606, whole entry: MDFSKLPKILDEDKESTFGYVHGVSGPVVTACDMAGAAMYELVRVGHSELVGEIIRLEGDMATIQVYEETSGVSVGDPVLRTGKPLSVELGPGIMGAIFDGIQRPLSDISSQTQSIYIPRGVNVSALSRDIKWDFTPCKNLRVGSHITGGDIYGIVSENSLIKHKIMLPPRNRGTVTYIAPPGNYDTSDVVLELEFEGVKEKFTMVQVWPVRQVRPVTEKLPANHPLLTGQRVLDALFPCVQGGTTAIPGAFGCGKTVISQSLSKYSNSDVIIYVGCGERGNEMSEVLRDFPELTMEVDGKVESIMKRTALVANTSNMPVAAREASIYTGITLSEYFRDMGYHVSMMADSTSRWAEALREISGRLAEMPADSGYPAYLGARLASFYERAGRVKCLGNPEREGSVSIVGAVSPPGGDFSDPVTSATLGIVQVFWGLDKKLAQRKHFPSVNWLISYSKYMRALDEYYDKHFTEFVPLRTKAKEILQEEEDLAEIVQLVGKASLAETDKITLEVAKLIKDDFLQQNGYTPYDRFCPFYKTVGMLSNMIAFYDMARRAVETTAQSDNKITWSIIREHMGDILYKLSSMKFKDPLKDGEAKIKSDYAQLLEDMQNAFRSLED
UniProt P35670: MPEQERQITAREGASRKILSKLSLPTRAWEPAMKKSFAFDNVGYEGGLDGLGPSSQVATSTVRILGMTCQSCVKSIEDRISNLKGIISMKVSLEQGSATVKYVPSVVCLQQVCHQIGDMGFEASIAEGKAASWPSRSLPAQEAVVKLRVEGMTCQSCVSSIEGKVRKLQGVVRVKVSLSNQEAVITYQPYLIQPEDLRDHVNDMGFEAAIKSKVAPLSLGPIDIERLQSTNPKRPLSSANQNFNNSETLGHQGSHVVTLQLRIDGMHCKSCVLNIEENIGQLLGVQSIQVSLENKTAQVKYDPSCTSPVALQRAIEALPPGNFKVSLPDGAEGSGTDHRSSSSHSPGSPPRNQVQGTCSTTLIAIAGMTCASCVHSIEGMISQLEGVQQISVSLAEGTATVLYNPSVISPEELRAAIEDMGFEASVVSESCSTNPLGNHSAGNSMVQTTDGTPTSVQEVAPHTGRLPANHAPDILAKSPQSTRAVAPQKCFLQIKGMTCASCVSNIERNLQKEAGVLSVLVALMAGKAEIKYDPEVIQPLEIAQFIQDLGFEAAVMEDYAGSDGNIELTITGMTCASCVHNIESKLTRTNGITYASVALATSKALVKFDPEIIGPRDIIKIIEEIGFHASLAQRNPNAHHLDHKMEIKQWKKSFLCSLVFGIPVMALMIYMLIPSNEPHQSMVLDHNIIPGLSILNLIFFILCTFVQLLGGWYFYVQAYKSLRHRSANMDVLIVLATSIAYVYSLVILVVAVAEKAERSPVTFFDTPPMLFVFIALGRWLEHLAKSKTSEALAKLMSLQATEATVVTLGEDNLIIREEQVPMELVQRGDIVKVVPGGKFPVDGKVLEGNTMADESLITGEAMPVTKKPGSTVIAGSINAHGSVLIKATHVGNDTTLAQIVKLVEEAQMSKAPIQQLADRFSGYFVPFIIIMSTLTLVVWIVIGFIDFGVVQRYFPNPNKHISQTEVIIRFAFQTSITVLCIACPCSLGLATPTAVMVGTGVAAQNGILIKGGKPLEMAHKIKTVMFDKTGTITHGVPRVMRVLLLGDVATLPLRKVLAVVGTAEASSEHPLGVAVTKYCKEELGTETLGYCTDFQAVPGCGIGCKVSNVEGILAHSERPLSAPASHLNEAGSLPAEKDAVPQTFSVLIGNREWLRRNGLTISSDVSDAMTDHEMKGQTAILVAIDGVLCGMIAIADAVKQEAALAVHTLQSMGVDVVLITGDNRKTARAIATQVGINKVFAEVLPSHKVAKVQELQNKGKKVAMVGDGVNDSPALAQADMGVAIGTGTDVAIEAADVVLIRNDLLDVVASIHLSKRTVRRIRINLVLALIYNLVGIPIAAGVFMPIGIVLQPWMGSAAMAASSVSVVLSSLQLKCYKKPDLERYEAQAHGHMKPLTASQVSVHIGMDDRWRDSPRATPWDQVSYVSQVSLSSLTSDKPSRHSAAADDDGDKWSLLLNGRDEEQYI
UniProt P29372, whole entry: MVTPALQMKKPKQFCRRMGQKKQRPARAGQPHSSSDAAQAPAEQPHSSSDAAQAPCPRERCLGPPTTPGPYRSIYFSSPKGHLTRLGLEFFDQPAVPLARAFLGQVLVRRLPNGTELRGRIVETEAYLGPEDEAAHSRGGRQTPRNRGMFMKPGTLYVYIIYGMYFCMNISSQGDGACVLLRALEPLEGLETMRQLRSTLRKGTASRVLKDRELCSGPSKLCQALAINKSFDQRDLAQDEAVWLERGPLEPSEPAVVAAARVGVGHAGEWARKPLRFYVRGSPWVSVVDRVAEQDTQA
UniProt P40925: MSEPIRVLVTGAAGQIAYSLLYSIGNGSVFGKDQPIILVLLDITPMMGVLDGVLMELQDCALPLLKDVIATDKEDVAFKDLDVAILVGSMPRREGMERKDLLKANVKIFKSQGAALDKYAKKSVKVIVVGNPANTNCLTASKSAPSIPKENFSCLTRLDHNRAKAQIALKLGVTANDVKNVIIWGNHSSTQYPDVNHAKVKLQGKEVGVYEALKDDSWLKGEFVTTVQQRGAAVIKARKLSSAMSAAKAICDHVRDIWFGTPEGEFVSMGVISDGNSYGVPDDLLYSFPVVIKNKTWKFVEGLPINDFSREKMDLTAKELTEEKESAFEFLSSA
UniProt P30043: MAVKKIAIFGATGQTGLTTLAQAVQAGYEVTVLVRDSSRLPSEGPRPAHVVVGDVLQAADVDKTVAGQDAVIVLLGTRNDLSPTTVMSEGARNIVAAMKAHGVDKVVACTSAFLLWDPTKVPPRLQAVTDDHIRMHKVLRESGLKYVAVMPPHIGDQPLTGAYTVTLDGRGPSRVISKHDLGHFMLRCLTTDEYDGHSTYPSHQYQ
UniProt P32119: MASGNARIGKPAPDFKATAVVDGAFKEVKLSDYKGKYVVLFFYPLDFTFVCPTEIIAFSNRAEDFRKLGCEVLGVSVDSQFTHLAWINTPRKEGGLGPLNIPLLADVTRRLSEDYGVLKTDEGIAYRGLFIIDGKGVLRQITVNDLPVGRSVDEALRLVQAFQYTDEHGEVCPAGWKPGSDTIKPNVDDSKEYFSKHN
UniProt P41250: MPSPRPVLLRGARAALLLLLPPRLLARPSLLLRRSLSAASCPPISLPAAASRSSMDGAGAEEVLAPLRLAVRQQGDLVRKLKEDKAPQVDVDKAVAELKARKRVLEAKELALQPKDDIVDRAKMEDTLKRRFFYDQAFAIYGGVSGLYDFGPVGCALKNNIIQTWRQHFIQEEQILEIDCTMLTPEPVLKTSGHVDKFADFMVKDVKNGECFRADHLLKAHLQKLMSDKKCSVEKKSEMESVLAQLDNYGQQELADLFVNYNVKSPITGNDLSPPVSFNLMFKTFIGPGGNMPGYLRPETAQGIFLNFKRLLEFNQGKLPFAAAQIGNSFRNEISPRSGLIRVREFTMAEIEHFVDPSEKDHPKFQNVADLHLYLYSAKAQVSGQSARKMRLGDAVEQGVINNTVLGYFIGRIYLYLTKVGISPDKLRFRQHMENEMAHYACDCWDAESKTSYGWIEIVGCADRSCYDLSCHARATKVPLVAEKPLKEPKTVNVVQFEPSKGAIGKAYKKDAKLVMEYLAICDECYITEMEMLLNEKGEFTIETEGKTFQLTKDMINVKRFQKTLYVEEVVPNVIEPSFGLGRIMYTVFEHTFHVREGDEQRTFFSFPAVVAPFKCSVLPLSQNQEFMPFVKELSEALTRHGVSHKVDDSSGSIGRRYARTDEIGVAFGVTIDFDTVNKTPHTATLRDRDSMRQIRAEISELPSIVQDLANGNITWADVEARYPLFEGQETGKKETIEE
UniProt P43897: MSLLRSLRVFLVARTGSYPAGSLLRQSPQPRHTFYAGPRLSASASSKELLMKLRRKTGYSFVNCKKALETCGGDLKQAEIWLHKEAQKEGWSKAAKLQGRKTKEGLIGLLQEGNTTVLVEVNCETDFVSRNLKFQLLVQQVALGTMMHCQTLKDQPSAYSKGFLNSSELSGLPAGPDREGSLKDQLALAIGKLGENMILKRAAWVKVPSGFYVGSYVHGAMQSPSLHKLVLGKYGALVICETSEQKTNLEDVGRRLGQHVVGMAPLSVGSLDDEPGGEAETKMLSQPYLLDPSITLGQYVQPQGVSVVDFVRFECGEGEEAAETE
UniProt P29692: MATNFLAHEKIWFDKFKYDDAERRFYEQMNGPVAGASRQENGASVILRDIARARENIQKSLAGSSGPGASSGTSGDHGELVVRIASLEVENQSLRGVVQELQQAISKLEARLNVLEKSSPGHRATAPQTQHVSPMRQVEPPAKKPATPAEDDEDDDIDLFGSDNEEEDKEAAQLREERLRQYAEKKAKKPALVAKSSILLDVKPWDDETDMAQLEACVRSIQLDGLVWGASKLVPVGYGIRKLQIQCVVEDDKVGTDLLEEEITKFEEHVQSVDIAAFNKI

compound: CN[C@@H]1C[C@H]2O[C@@](C)([C@@H]1OC)n1c3ccccc3c3c4c(c5c6ccccc6n2c5c31)C(=O)NC4 [staurosporine]; assay: log2 fold change of tryptic peptide abundance, ligand vs vehicle (limited proteolysis) (log2 ratio); higher = more trypsin-susceptible (destabilized); settings: ligand concentration: 20 uM; sample: K562 cleared lysate; digestion: 4 min, 22 C (HT-PELSA RT4min, Orbitrap Astral)

Target | log2 fold change
NNMT (peptide sequence: MESGFTSK, peptide start residue: 1) (UniProt P40261) | 0.241
RBL1 (peptide sequence: DMQPLSPISVHER, peptide start residue: 635) (UniProt P28749) | 0.256
SNCA (peptide sequence: EGVVHGVATVAEK, peptide start residue: 46) (UniProt P37840) | 0.18
FUS (peptide sequence: KTGQPMINLYTDR, peptide start residue: 316) (UniProt P35637) | 0.15
AGL (peptide sequence: HSPSIHQSVVAVSR, peptide start residue: 735) (UniProt P35573) | -0.369
CA8 (peptide sequence: DCEVTNDGHTIQVILK, peptide start residue: 79) (UniProt P35219) | -0.279
TIA1 (peptide sequence: GYGFVSFFNK, peptide start residue: 148) (UniProt P31483) | -0.173
ETV4 (peptide sequence: LIEPEEVAR, peptide start residue: 365) (UniProt P43268) | -0.195
UniProt P32314 (peptide sequence: SYGNAFHHPSAVR, peptide start residue: 273) | 0.335
NMT1 (peptide sequence: EKGSETDSAQDQPVK, peptide start residue: 66) (UniProt P30419) | -0.148
KIF5B (peptide sequence: LRVEHEK, peptide start residue: 747) (UniProt P33176) | 0.195
PBLD (peptide sequence: MKLPIFIADAFTAR, peptide start residue: 1) (UniProt P30039) | 0.626
IMPA1 (peptide sequence: SSPVDLVTATDQKVEK, peptide start residue: 37) (UniProt P29218) | 0.261
UniProt P36542 (peptide sequence: LTLTFNR, peptide start residue: 271) | 0.17
RANBP1 (peptide sequence: TLEEDEEELFKMRAK, peptide start residue: 40) (UniProt P43487) | 1.25
ETV5 (peptide sequence: LYFDDTCVVPERLEGK, peptide start residue: 333) (UniProt P41161) | -0.171
UniProt P36954 (peptide sequence: FCQECNNMLYPKEDKENR, peptide start residue: 16) | 0.339
ELF1 (peptide sequence: TLTQEVEK, peptide start residue: 564) (UniProt P32519) | -0.698
RPL13A (peptide sequence: KQAEKNVEK, peptide start residue: 179) (UniProt P40429) | 1.03
ATP6V1A (peptide sequence: ITWSIIR, peptide start residue: 565) (UniProt P38606) | 0.21

Fetched one by one from the list above (2):
Target | log2 fold change
RBL1 (peptide sequence: DMQPLSPISVHER, peptide start residue: 635) (UniProt P28749) | 0.256
UniProt P36542 (peptide sequence: LTLTFNR, peptide start residue: 271) | 0.17

Following part.

Target | log2 fold change
PPP2R1A (peptide sequence: NEDVQLR, peptide start residue: 34) (UniProt P30153) | -0.0962
CDC25B (peptide sequence: TAVNLPLER, peptide start residue: 453) (UniProt P30305) | 0.369
KDM5A (peptide sequence: NLLDDVEEFHER, peptide start residue: 848) (UniProt P29375) | 0.326
ATP7B (peptide sequence: SLPAQEAVVK, peptide start residue: 137) (UniProt P35670) | 0.138
IGHMBP2 (peptide sequence: KLSELSNQR, peptide start residue: 976) (UniProt P38935) | -0.564
PCSK6 (peptide sequence: SIPLVQVLR, peptide start residue: 512) (UniProt P29122) | 0.0199
MPG (peptide sequence: ERCLGPPTTPGPYR, peptide start residue: 59) (UniProt P29372) | -0.198
CHKA (peptide sequence: GLREDEFHISVIR, peptide start residue: 105) (UniProt P35790) | -0.468
MSH2 (peptide sequence: LDSSAQFGYYFR, peptide start residue: 513) (UniProt P43246) | -0.744
HMOX2 (peptide sequence: YMGDLSGGQVLK, peptide start residue: 157) (UniProt P30519) | -0.294
MDH1 (peptide sequence: EVGVYEALKDDSWLK, peptide start residue: 206) (UniProt P40925) | -0.495
BLVRB (peptide sequence: LQAVTDDHIR, peptide start residue: 125) (UniProt P30043) | -0.429
PRDX2 (peptide sequence: EGGLGPLNIPLLADVTR, peptide start residue: 93) (UniProt P32119) | 0.348
RECQL (peptide sequence: QKPSNTEDFIEDIVK, peptide start residue: 292) (UniProt P46063) | 0.521
GTF2E1 (peptide sequence: YKLDHMR, peptide start residue: 105) (UniProt P29083) | 0.361
UniProt P41250 (peptide sequence: IMYTVFEHTFHVR, peptide start residue: 584) | 0.205
TSFM (peptide sequence: KTGYSFVNCKK, peptide start residue: 56) (UniProt P43897) | -0.346
FEN1 (peptide sequence: LIADVAPSAIRENDIK, peptide start residue: 9) (UniProt P39748) | 0.235
EEF1D (peptide sequence: YDDAERR, peptide start residue: 18) (UniProt P29692) | -0.148
